Results are given in words; binding and its absence hold for the method and conditions named. Binding seen in cells or lysates may run through a third protein. Some results given as binding are weak or reduced against the parent protein; the word gives no strength. Where a sequence is shown, tags or fusion partners need not be part of it.
Legend:
[1] = molecular target: T1, Myc-GFP-STIL (wild type), not phosphorylated by co-expressed active PLK4 (human) (UniProt Q15468); assay: co-IP; HEK293FT cells co-transfected, with kinase active or kinase dead PLK4^Δ24-mCherry where stated; lysis buffer 10 mM Tris pH 7.5, 0.1% Triton X-100, 250 mM NaCl, 1 mM EDTA, phosphatase inhibitors; Myc-GFP-STIL captured on beads coupled to GFP-binding protein; immunoblot
T1 sequence: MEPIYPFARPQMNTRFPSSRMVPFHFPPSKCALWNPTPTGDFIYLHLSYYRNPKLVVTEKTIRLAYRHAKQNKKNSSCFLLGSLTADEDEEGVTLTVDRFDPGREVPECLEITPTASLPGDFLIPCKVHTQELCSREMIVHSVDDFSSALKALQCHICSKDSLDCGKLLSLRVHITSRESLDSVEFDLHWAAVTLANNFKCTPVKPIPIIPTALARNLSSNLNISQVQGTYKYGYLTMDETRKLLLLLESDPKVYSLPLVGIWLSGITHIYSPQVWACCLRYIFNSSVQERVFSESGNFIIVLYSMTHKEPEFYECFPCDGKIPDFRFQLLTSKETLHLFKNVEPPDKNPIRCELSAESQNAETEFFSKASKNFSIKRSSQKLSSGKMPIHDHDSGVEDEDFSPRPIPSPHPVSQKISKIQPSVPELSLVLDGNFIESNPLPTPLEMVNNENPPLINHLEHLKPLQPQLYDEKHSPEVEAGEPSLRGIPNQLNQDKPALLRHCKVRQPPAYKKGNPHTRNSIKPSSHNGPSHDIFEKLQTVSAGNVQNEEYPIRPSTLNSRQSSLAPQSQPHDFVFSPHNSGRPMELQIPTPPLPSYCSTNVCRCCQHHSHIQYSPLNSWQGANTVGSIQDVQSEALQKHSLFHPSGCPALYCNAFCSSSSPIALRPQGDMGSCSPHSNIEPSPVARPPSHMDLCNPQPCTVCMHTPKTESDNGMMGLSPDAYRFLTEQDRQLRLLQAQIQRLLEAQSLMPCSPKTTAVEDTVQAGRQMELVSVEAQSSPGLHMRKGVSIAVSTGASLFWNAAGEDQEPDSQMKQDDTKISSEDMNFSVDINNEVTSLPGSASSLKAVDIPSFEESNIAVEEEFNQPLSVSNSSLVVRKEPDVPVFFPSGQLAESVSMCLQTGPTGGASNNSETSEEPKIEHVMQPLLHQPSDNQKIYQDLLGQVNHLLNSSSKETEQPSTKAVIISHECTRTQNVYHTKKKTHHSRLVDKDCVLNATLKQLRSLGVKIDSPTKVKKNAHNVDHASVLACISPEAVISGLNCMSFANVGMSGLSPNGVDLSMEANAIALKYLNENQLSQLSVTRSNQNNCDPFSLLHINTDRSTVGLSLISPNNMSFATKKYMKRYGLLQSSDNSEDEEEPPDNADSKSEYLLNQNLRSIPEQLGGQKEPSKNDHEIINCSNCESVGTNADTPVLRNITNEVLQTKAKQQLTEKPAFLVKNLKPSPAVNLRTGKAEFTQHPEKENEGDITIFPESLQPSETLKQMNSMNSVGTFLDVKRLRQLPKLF

The chains behind the UniProt entries cited, without tags or fusion partners.
UniProt Q86VV8: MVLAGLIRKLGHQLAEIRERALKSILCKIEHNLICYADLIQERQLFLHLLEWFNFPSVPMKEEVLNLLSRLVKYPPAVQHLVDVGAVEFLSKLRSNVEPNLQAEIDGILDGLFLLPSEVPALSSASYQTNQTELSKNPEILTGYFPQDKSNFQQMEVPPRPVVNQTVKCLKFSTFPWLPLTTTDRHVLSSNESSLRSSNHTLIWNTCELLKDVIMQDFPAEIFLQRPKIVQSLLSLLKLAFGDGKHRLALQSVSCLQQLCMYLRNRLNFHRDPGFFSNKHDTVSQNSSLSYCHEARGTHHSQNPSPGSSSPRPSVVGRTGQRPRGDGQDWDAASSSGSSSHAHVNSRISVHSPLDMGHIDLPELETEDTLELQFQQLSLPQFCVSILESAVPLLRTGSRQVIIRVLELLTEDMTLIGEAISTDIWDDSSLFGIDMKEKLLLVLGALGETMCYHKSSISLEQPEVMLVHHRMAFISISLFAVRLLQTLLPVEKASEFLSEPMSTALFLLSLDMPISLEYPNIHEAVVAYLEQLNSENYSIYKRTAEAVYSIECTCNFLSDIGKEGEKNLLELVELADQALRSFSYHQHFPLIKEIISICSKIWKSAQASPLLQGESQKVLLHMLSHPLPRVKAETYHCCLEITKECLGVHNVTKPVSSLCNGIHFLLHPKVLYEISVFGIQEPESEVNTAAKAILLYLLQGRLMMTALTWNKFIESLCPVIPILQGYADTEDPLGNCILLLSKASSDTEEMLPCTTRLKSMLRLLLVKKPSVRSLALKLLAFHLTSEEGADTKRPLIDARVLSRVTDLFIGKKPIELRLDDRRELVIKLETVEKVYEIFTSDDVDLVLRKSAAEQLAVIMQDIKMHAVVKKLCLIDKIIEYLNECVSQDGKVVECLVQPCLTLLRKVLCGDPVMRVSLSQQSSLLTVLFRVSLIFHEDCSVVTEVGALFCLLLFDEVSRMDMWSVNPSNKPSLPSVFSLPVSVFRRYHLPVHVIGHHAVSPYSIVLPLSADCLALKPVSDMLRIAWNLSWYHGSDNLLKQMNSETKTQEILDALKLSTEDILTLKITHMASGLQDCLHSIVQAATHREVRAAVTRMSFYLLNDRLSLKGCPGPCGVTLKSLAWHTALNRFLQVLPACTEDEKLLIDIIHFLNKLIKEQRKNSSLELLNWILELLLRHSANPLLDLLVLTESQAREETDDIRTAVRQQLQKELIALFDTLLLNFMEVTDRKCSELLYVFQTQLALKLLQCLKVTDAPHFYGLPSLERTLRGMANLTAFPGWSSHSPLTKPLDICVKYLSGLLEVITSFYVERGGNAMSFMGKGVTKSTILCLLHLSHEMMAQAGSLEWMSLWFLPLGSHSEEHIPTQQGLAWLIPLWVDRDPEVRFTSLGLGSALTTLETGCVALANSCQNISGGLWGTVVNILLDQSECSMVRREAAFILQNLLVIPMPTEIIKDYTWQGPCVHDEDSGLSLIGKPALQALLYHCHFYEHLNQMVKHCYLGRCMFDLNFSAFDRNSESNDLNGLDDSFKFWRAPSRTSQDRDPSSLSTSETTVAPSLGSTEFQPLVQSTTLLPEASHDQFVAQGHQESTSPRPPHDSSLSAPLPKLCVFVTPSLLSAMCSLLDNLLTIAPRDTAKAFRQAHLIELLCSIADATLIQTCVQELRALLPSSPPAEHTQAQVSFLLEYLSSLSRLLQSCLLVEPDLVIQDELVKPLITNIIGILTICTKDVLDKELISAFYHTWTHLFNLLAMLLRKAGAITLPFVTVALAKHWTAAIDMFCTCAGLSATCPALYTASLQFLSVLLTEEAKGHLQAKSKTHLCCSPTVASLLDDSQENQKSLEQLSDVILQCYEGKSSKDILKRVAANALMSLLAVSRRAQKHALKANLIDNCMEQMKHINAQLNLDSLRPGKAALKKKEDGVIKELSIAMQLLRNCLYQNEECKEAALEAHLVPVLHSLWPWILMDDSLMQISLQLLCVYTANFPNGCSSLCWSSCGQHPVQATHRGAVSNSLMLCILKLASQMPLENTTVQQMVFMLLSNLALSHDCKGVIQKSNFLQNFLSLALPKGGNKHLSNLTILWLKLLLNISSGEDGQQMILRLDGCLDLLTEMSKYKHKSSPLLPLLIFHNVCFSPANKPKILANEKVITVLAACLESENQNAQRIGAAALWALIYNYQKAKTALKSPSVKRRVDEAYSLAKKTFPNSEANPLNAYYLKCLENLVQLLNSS

[2] = molecular target: T2, Myc-GFP-Ana2 (WT), without co-expressed DmPLK4^SBM (D. melanogaster) (UniProt Q9XZ31); assay: co-IP; Drosophila S2 cells transfected with Myc-GFP-Ana2 and Flag-DmSas4 in the presence or absence of DmPLK4^SBM-mCherry; harvested 48 hr later; co-immunoprecipitation and immunoblot
T2 sequence: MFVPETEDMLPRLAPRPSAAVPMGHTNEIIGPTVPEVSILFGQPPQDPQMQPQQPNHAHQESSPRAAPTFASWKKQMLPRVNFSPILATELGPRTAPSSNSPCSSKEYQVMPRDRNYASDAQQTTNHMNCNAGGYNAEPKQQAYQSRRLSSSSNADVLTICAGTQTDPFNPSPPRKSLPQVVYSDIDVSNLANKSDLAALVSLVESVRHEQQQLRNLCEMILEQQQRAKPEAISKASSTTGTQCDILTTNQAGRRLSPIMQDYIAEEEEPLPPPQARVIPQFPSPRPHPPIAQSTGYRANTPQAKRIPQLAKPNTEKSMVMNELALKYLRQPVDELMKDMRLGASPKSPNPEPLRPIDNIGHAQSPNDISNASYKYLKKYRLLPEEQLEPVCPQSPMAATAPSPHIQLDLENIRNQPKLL

[3] = molecular target: T3, Myc-GFP-Ana2 S38A co-expressed with stabilized DmPLK4^SBM-mCherry (D. melanogaster), Q9XZ31; assay: as above; settings: remark: other sources report otherwise
T3 chain: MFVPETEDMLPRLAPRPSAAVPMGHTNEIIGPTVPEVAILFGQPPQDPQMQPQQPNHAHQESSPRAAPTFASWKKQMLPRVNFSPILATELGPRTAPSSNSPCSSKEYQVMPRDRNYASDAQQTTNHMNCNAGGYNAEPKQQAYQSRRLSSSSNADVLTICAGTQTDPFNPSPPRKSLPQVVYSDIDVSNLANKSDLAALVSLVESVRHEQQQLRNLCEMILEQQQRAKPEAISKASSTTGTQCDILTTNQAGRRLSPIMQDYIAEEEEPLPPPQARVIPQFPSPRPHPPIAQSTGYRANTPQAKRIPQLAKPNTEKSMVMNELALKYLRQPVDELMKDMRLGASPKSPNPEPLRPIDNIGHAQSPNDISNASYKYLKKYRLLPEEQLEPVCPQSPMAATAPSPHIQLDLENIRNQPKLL

[4] = molecular target: T4, Myc-GFP-Ana2 S38A, without co-expressed DmPLK4^SBM (D. melanogaster), Q9XZ31; assay: as above; settings: remark: other sources report otherwise
T4 chain: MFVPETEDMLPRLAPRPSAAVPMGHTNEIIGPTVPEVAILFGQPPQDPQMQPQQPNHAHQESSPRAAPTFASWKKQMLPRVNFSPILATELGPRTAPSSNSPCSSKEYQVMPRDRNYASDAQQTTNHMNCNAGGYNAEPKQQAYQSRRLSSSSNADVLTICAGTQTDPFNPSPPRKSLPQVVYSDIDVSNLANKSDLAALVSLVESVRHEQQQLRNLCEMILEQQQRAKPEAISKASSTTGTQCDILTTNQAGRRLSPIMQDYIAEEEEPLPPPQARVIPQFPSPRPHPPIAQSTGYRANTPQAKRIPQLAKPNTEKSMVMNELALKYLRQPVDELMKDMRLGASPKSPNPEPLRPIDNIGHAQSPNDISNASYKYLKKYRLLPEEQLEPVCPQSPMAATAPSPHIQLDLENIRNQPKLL

RTTN (from UniProt Q86VV8 1-2226) was tested, and the binding [1] was “binds”.

B1: Flag-DmSas4 (natural protein, D. melanogaster, UniProt Q9VI72 1-901, looked up)
chain: MQEAGESPVGMPLSQEAIAQRLAALSRWQDEQKRLLQERQSNHRVLLGLEQRNMYKMLGLLHQETESHENSVLEEWDEEHSIQMPRLAADPDEHEPEISMADPQPAKPKRPFLRRGEGLKQRFKINPDQLRLENLPRYKFANAHPQFRTPQMKKGILKKQVKSPPNPAPPPAPKPSAQLDDLNEQRFQQMLIGKNACSSTPDLKSSYASSTTASSTSPRVRFVEQKSRAGQTTHADDEASSEASPMTGVCWAKVLDTQSIKPAQIQRRSAQIRVEDDSNVSIFELLEQKATEGNIDMNSSCIRTFMARKDQRRRVADDSDHIVVTQQVRQMRLQPQVDQMLVQELQEGDEEDTEPSSDQTLTMTPIQVGNTKVRVRFSDSNDTHEYSDATSLNDGSNIQLFEQFKSALFQALEQKKKSSPSKESDEPITKDLQEKANLVRTRLEELETEIATFKEQNAQLLRLRQQHELEKAKCTQDHMEAMERVHDEKIQAEIYLHDERMKIEEERRKFEQQMRLQKSNANSKEKKEIAALKQEVEGLQLQLKQKEQAHVSAQARLRAQLRASEKEQRNYRDEIELLRKENKRLEQELVKIGRENNSKMLQEINRNIARLAPKVLPSATMSDILDENGRRTQSLDGTAGKPAKQREAQNRRQSSGSAQVRSRSRSLSRNKKTPYALDESYASSSSVESEEVQPPVTAPKAATPPPAANSSSDFKREITNADGSKDIWYPNGNLKKISADGMNLRMLYFNKDIKETNIREGTVKYYYAETNTWHTSYLDGLEILEFPNGQTEHRRKDGTVEIHFPNNSIKIVDPSDTEKLEEWRYADGTHLVQLRNGDKILNLPNGQKEIHTKLNKRREYPDGTVKLVYPDGSQETRYSNGRVRLKDKDGKLIMDTDYAKY
notes: Sas-4 (DmSas4), D. melanogaster; also called CPAP orthologue DmSas4; source: Drosophila S2 cells, transfected, in lysate; not shown: FLAG, N-terminal, kept
B1 was tested, and the binding [2] was “binds”.

B2: Flag-DmSas4, Q9VI72 1-901 (protein)
chain: MQEAGESPVGMPLSQEAIAQRLAALSRWQDEQKRLLQERQSNHRVLLGLEQRNMYKMLGLLHQETESHENSVLEEWDEEHSIQMPRLAADPDEHEPEISMADPQPAKPKRPFLRRGEGLKQRFKINPDQLRLENLPRYKFANAHPQFRTPQMKKGILKKQVKSPPNPAPPPAPKPSAQLDDLNEQRFQQMLIGKNACSSTPDLKSSYASSTTASSTSPRVRFVEQKSRAGQTTHADDEASSEASPMTGVCWAKVLDTQSIKPAQIQRRSAQIRVEDDSNVSIFELLEQKATEGNIDMNSSCIRTFMARKDQRRRVADDSDHIVVTQQVRQMRLQPQVDQMLVQELQEGDEEDTEPSSDQTLTMTPIQVGNTKVRVRFSDSNDTHEYSDATSLNDGSNIQLFEQFKSALFQALEQKKKSSPSKESDEPITKDLQEKANLVRTRLEELETEIATFKEQNAQLLRLRQQHELEKAKCTQDHMEAMERVHDEKIQAEIYLHDERMKIEEERRKFEQQMRLQKSNANSKEKKEIAALKQEVEGLQLQLKQKEQAHVSAQARLRAQLRASEKEQRNYRDEIELLRKENKRLEQELVKIGRENNSKMLQEINRNIARLAPKVLPSATMSDILDENGRRTQSLDGTAGKPAKQREAQNRRQSSGSAQVRSRSRSLSRNKKTPYALDESYASSSSVESEEVQPPVTAPKAATPPPAANSSSDFKREITNADGSKDIWYPNGNLKKISADGMNLRMLYFNKDIKETNIREGTVKYYYAETNTWHTSYLDGLEILEFPNGQTEHRRKDGTVEIHFPNNSIKIVDPSDTEKLEEWRYADGTHLVQLRNGDKILNLPNGQKEIHTKLNKRREYPDGTVKLVYPDGSQETRYSNGRVRLKDKDGKLIMDTDYAKY
B2 was tested, and the binding [3] was “binds” and the binding [4] was “binds”.

B3: CEP85 (protein, UniProt Q6P2H3 1-762)
chain: MAMQEKYPTEGISHVTSPSSDVIQKGSSLGTEWQTPVISEPFRSRFSRCSSVADSGDTAIGTSCSDIAEDFCSSSGSPPFQPIKSHVTIPTAHVMPSTLGTSPAKPNSTPVGPSSSKLPLSGLAESVGMTRNGDLGAMKHSPGLSRDLMYFSGATGENGIEQSWFPAVGHERQEEARKFDIPSMESTLNQSAMMETLYSDPHHRVRFHNPRTSTSKELYRVLPEAKKAPGSGAVFERNGPHSNSSGVLPLGLQPAPGLSKPLPSQVWQPSPDTWHPREQSCELSTCRQQLELIRLQMEQMQLQNGAICHHPAAFGPSLPILEPAQWISILNSNEHLLKEKELLIDKQRKHISQLEQKVRESELQVHSALLGRPAPFGDVCLLRLQELQRENTFLRAQFAQKTEALSREKIDLEKKLSASEVEVQLIRESLKVALQKHSEEVKKQEERVKGRDKHINNLKKKCQKESEQNREKQQRIETLERYLADLPTLEDHQKQSQQLKDSELKSTELQEKVTELESLLEETQAICREKEIQLESLRQREAEFSSAGHSLQDKQSVEETSGEGPEVEMESWQKRYDSLQKIVEKQQQKMDQLRSQVQSLEQEVAQEEGTSQALREEAQRRDSALQQLRTAVKELSVQNQDLIEKNLTLQEHLRQAQPGSPPSPDTAQLALELHQELASCLQDLQAVCSIVTQRAQGHDPNLSLLLGIHSAQHPETQLDLQKPDVIKRKLEEVQQLRRDIEDLRTTMSDRYAQDMGENCVTQ
With B3 the binding [1] was “binds”.
